According to patent publication US8017576B2, “Methods and compositions to treat mucositis” (The University of Chicago, priority 2005, dated 2011):
Part of at least one peptide drawing is inferred or uncertain, most often the ends. Where no end group is shown, it is not given here.

Key:
C2 cells [1] = assay: Occludin confocal microscopy, control conditions and monochloramine oxidant injury; assay type: cell-based, human
HeLa cells = assay: Cell growth assay in HeLa cells; assay type: cell-based
[2] = tested on: renal epithelial cells (MDCK line); assay: Mitogenic and cell protective effects on renal epithelial cells in culture; assay type: cell-based
Syrian golden hamsters = assay: Studies 4 and 5: radiation-induced cheek pouch mucositis, subcutaneous dosing; assay type: in vivo, hamster
mice = assay: Acute colitis induced by dextran sulfate sodium; assay type: in vivo; conditions: DSS-induced acute colitis in mice
BDF-1 mice = assay: Study 1: epithelial thickening of oral mucosal surfaces in mice; assay type: in vivo
Experimental: The capacity of the AMP77-97 peptide to induce epithelial thickening of oral mucosal surfaces in mice and hamsters was studied to determine if these animals could be used to evaluate the potential of AMP77-97 peptide in the treatment of oral mucositis. In Study 1, female BDF-1 mice (n=8) and Syrian golden hamsters (n=8) were given daily subcutaneous injections of saline, mouse AMP77-97 peptide at 5 mg/kg, or 25 mg/kg for five days. […] There also appeared to be an increase in both hyperplasia and hyperkeratosis with increasing dose (more prevalent/pronounced in the animals receiving 25 mg/kg than those receiving 5 mg/kg) and duration of dosing (there were some effects seen at 2 days, but were more readily seen after 5 consecutive days). The effect was more easily observed on the dorsal than the ventral surface of the tongue.

WI-38 fibroblast cells = assay: Cell growth assay in fibroblasts; assay type: cell-based
TJ protein components = TJ protein components in tissues after subcutaneous administration; assay type: in vivo; conditions: administered subcutaneously to mice; intestinal, kidney, liver tissue
H. pylori = assay: Growth of H. pylori
[3] = tested on: human colonic Caco2 (C2) cell monolayers; assay: Tight junction recovery after low-calcium disruption, ZO-1 confocal microscopy; assay type: cell-based; conditions: low-calcium medium (3 μM) 1 hour, assessed 2 hours after addition; AMP peptide 8 μg/ml, KGF-1 100 ng/ml, EGF 100 ng/ml
Experimental: The AMP77-97 peptide prevented decreases in TJ proteins and epithelial integrity seen after treatment of human colonic Caco2 (C2) cell monolayers with the oxidant monochloramine, which disrupts intercellular junctions (FIG. 2; C,D). These cells were exposed to low-calcium medium (3 μM) for 1 hr to disrupt TJs, and then allowed to recover in medium containing AMP77-97 peptide, epidermal growth factor (EGF) or keratinocyte growth factor (KGF-1) which are known epithelial cell mitogens that might facilitate recovery of disrupted TJs. […] At the molecular level, AMP77-97 peptide facilitates the formation of TJs by enhancing translocation of several proteins (protein kinase C-zeta, Par6, Cdc42, ECT2 and Par3) from the cytosol into TJ domains.
Localization of the tight junction protein ZO-1 was monitored by indirect immunofluorescence laser scanning confocal microscopy in confluent monolayers of C2 cells. […] To disrupt tight junctions, cells were switched to low-calcium medium (3 μM) for 1 hour. Then a growth factor at a known mitogenic concentration was added to the medium, and 2 hours later its effect on tight junction formation was assessed by confocal microscopy. Vehicle, AMP peptide (8 μg/ml), KGF-1 (100 ng/ml), and EGF (100 ng/ml) were compared.

C2 cells [4] = assay: Transepithelial electrical resistance of C2 cells in culture; assay type: cell-based, human

## LDALVKEKKLQGKGPGGPPPK [AMP77-97 peptide]
C2 cells [1]; cells exposed to peptide for 18 hr, no oxidant
  occludin distribution under control conditions: occludin appeared to be relatively more abundant in the TJs and less in the cytoplasm than in control cells
C2 cells [1]; pretreated with peptide prior to monochloramine (0.3 mM) for 30 min
  occludin immunoreactivity after oxidant injury: occludin immunoreactivity at the cell junctions was more intense than in untreated injured cells
HeLa cells
  effect on cell growth: does not stimulate growth
[2]
  effects on renal epithelial cells: mitogenic and cell protective effects
Syrian golden hamsters; 40 mg/kg, Chi-squared test P<0.001
  number of animal days with mucositis scores of 3 or greater vs vehicle (FIG. 6): statistically significant lower mucositis score
Syrian golden hamsters; Study 4, 40 mg/kg s.c. days -5 to 15, 40 Gy
  day of peak of mucositis: 18 days
Syrian golden hamsters; Study 4, 40 mg/kg s.c., day 18, 0-5 score
  mean mucositis score at peak: 2.6
Syrian golden hamsters; Study 4, 40 mg/kg s.c., day 26
  mucositis score by day 26: 1.1
Syrian golden hamsters; Study 4, 40 mg/kg s.c., P<0.001 vs vehicle (PBS)
  animal days with a mucositis score of 3 or higher: 14.1%
Syrian golden hamsters; Study 4, day 14 (P=0.022), day 20 (P=0.042), day 26 (P=0.032)
  mucositis scores on single days vs vehicle: statistically significant reduction in mucositis scores
Syrian golden hamsters; Study 5, 40 mg/kg days -5 to -1 and 1 to 15, P=0.018
  number of days with a mucositis score of 3 or higher vs control: statistically significant reduction in the number of days with a mucositis score of 3 or higher
mice
  appearance of blood in the stool: delaying appearance of blood in the stool
  weight loss: reducing weight loss
BDF-1 mice; BDF-1 mice, daily s.c. 5 or 25 mg/kg for five days
  epithelial hyperplasia of the tongue (histology): significant epithelial hyperplasia on the dorsal surface of the tongues
BDF-1 mice; Study 1, daily s.c. 5 or 25 mg/kg, increased with dose and number of doses
  keratinization in the esophagus: increase in the degree of keratinization in the esophagus
WI-38 fibroblast cells
  stimulation of growth: does not stimulate growth
TJ protein components
  TJ protein components in tissue: increased TJ protein components in intestinal, but not kidney or liver tissue
H. pylori
  effect on H. pylori: growth inhibition of the organism
[3]
  formation of new tight junctions / localization of ZO-1: facilitated recovery of ZO-1 and the formation of intact tight junctions
C2 cells [4]
  transepithelial electrical resistance (barrier function): preserve transepithelial electrical resistance
